Laboratory results: the supplement of paper PMC9938546
Where a name gives a salt, the structure may show the parent alone. Some of the results follow. Plates or batches differ in their baseline, so values are only roughly comparable.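 HCT116-GFP is a human colorectal cancer cell line that carries a KRAS mutation, is microsatellite-unstable and always makes green fluorescent protein; the immune cells came from healthy donors. Live-cell imaging of the green signal stood in for cancer cell survival, and activated immune cells alone cut survival to about half.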

Tested on: HCT116-GFP
Experiment: HCT116-GFP viability (GFP intensity) relative to untreated HCT116-GFP monoculture control, co-culture with activated PBMCs; higher = less cancer cell killing
Settings: culture: co-culture with anti-CD3/IL2 activated PBMCs 1:1; 10 µM; 72 h

Row | SMILES | HCT116-GFP viability [%]
1 | CN1CCC(=C2c3ccccc3C=Cc3ccccc32)CC1 [Cyproheptadine hydrochloride] | 53.7
2 | N=C(N)NC(=N)NCCc1ccccc1 [Phenformin hydrochloride] | 46.4
3 | CC(C)(C)NC[C@@H](O)COc1cccc2c1CCCC2=O [(+) -Levobunolol hydrochloride] | 76.5
4 | CO[C@H]1/C=C/O[C@@]2(C)Oc3c(C)c(O)c4c(O)c(c(/C=N/N5CCN(C6CCCC6)CC5)c(O)c4c3C2=O)NC(=O)/C(C)=C\C=C\[C@H](C)[C@H](O)[C@@H](C)[C@@H](O)[C@@H](C)[C@H](OC(C)=O)[C@@H]1C [Rifapentine] | 41.1
5 | O=C(O)Cc1ccc(-c2ccccc2)cc1 [Felbinac] | 73.5
6 | C[C@@H]1C[C@H]2[C@@H]3C[C@H](F)C4=CC(=O)C=C[C@]4(C)[C@@]3(F)[C@@H](O)C[C@]2(C)[C@@]1(O)C(=O)CO [Flumethasone] | 103
7 | O=C(O)c1cn(-c2ccc(F)cc2)c2cc(N3CCNCC3)c(F)cc2c1=O [Sarafloxacin] | 33.6
8 | C[N+]1(C)CCC(OC(=O)C(O)(c2ccccc2)C2CCCC2)C1 (stereo not drawn) [Glycopyrrolate] | 76.7
9 | N#Cc1ccc(C(c2ccc(C#N)cc2)n2cncn2)cc1 [Letrozole] | 34.2
10 | Clc1ccc(CCC(Cn2ccnc2)Sc2c(Cl)cccc2Cl)cc1 (stereo not drawn) [Butoconazole nitrate] | 33.6
11 | CN1CCN(C2=Nc3ccccc3Oc3ccc(Cl)cc32)CC1 [Loxapine succinate] | 70
12 | N=C(NCCCCCCNC(=N)NC(=N)Nc1ccc(Cl)cc1)NC(=N)Nc1ccc(Cl)cc1 [Chlorhexidine] | 28.7
13 | NCc1ccccc1CC(=O)N[C@@H]1C(=O)N2C(C(=O)O)=C(CSc3nnnn3CC(=O)O)CS[C@H]12 [Ceforanide] | 38.4
14 | CC(=O)Oc1ccccc1C(=O)Nc1ncc([N+](=O)[O-])s1 [Nitazoxanide] | 37
15 | CC(N/C(=N\C#N)Nc1ccncc1)C(C)(C)C (stereo not drawn) [Pinacidil] | 49.6
16 | CCCCC(O)c1ccccc1 (stereo not drawn) [Fenipentol] | 48
17 | CCN(CC)CCOC(=O)C1(C2CCCCC2)CCCCC1 [Dicyclomine hydrochloride] | 52.8
18 | CN(C)CCCN1c2ccccc2Sc2ccc(C(F)(F)F)cc21 [Triflupromazine hydrochloride] | 30.4
19 | COc1cc(C(=O)OCCCN2CCCN(CCCOC(=O)c3cc(OC)c(OC)c(OC)c3)CC2)cc(OC)c1OC [Dilazep dihydrochloride] | 65.9
20 | O=C1c2c(O)cccc2Cc2cccc(O)c21 [Anthralin] | 30.3
21 | CN1CCN(C(c2ccccc2)c2ccccc2)CC1 [Cyclizine hydrochloride] | 52
22 | OCCN(CCO)c1nc(N2CCCCC2)c2nc(N(CCO)CCO)nc(N3CCCCC3)c2n1 [Dipyridamole] | 77.9
23 | CN(c1nccc(=O)[nH]1)C1CCN(c2nc3ccccc3n2Cc2ccc(F)cc2)CC1 [Mizolastine] | 63.9
24 | O=C(O)c1ccccc1C(=O)Nc1ccc(S(=O)(=O)Nc2nccs2)cc1 [Phthalylsulfathiazole] | 69
25 | NC[C@@H]1O[C@@H](O[C@H]2[C@H](O)[C@@H](O[C@H]3O[C@H](CO)[C@@H](O)[C@H](N)[C@H]3O)[C@H](N)C[C@@H]2N)[C@@H](O)[C@H](O)[C@H]1O [Kanamycin A sulfate] | 60.5

Row | SMILES | HCT116-GFP viability [%]
26 | CC1CC(OC(=O)c2ccccc2O)CC(C)(C)C1 (stereo not drawn) [Homosalate] | 32.3
27 | COC(=O)C1=C(C#N)NC(C)=C(C(=O)OC(C)C)C1c1cccc([N+](=O)[O-])c1 (stereo not drawn) [Nilvadipine] | 80.6
28 | C#C[C@]1(O)CC[C@H]2[C@@H]3CCC4=CCCC[C@@H]4[C@H]3CC[C@@]21C [Lynestrenol] | 40.5
29 | C[C@H](CCC(=O)O)[C@H]1CC[C@H]2[C@@H]3[C@@H](O)C[C@@H]4C[C@H](O)CC[C@]4(C)[C@H]3CC[C@]12C [Urosiol] | 60.8
30 | O=C(CCCN1CCN(c2ccccn2)CC1)c1ccc(F)cc1 [Azaperone] | 9.33
31 | Nc1c2ccccc2nc2ccccc12 [Aminacrine] | 9.09
32 | CN1CCC(=C2c3ccccc3Sc3ccccc32)CC1 [Pimethixene maleate] | 52.8
33 | N[C@@H](Cc1cc(I)c(Oc2ccc(O)c(I)c2)c(I)c1)C(=O)O [Liothyronine] | 72.1
34 | CS(=O)(=O)OCCCCOS(C)(=O)=O [Busulfan] | 42.6
35 | Cc1c(NC(=O)c2cccnc2)c(=O)n(-c2ccccc2)n1C [Nifenazone] | 43.8
36 | CC(C)NC[C@@H](O)COc1ccc(CC(N)=O)cc1 [(R)-(+)-Atenolol] | 80.5
37 | NS(=O)(=O)c1cc2c(cc1C(F)(F)F)NCNS2(=O)=O [Hydroflumethiazide] | 29.4
38 | CC[C@@H]1C(=O)OC[C@@H]1Cc1cncn1C [Pilocarpine nitrate] | 34.9
39 | CO[C@@H]1[C@@H](O[C@@H]2O[C@H](C)[C@@H](O[C@H]3C[C@@](C)(O)[C@@H](OC(=O)CC(C)C)[C@H](C)O3)[C@H](N(C)C)[C@H]2O)[C@@H](CC=O)C[C@@H](C)[C@@H](O)/C=C/C=C/C[C@@H](C)OC(=O)C[C@H]1OC(C)=O [Josamycin] | 34.6
40 | CC(=O)CC(c1ccccc1)c1c(O)c2ccccc2oc1=O (stereo not drawn) [Warfarin] | 76.2
41 | CCN(CC)CC(=O)Nc1c(C)cccc1C [Lidocaine hydrochloride] | 61.7
42 | c1ccc2c(CC3=NCCN3)cccc2c1 [Naphazoline hydrochloride] | 35.9
43 | CC(=O)OCC(=O)[C@@]12OC(C)(C)O[C@@H]1C[C@H]1[C@@H]3C[C@H](F)C4=CC(=O)C=C[C@]4(C)[C@@]3(F)[C@@H](O)C[C@@]12C [Fluocinonide] | 89
44 | C=CC1=C(C(=O)O)N2C(=O)[C@@H](NC(=O)/C(=N\O)c3csc(N)n3)[C@H]2SC1 [Cefdinir] | 38.1
45 | CC(=O)NS(=O)(=O)c1ccc(N)cc1 [Sulfacetamide sodic hydrate] | 42.1
46 | Cc1cn([C@H]2C=C[C@@H](CO)O2)c(=O)[nH]c1=O [Stavudine] | 72.9
47 | COc1cccc2c1C(=O)c1c(O)c3c(c(O)c1C2=O)C[C@@](O)(C(C)=O)C[C@@H]3O[C@H]1C[C@H](N)[C@H](O)[C@H](C)O1 [Daunorubicin hydrochloride] | 5.95
48 | C/C=C(/C(=C/C)c1ccc(O)cc1)c1ccc(O)cc1 [Dienestrol] | 73.4
49 | Cc1ncc([N+](=O)[O-])n1CC(C)O (stereo not drawn) [Secnidazole] | 63.9
50 | O=C(O)c1ccccc1OP(=O)(O)O [Fosfosal] | 60

Row | SMILES | HCT116-GFP viability [%]
51 | COc1ccc2cc([C@H](C)C(=O)O)ccc2c1 [Naproxen] | 40.2
52 | Nc1cc(N2CCCCC2)nc(N)[n+]1[O-] [Minoxidil] | 34.1
53 | CC1(C)S[C@@H]2[C@H](NC(=O)[C@H](N)c3ccccc3)C(=O)N2[C@H]1C(=O)O [Ampicillin trihydrate] | 43.4
54 | O=c1n(CCCN2CCN(c3cccc(Cl)c3)CC2)nc2ccccn12 [Trazodone hydrochloride] | 54.3
55 | NC(=O)c1cnccn1 [Pyrazinamide] | 46.8
56 | Cc1nc2ccccn2c(=O)c1CCN1CCC(C(=O)c2ccc(F)cc2)CC1 [Pirenperone] | 36.7
57 | CSc1nc2cc(Cl)c(Oc3cccc(Cl)c3Cl)cc2[nH]1 [Triclabendazole] | 35.4
58 | O=C(CCNNC(=O)c1ccncc1)NCc1ccccc1 [Nialamide] | 55.9
59 | N/C(=N\C(=O)c1nc(Cl)c(N)nc1N)NCc1ccccc1 [Benzamil hydrochloride] | 62.1
60 | CCCN(CCC)CCc1cccc2c1CC(=O)N2 [Ropinirole hydrochloride] | 45.8
61 | COc1cccc2c1C(=O)c1c(O)c3c(c(O)c1C2=O)C[C@@](O)(C(=O)CO)C[C@@H]3O[C@H]1C[C@H](N)[C@@H](O)[C@H](C)O1 [Epirubicin hydrochloride] | 10.6
62 | CC(=O)O[C@H]1C(=O)[C@@]2(C)[C@H]([C@H](OC(=O)c3ccccc3)[C@]3(O)C[C@H](OC(=O)[C@H](O)[C@@H](NC(=O)c4ccccc4)c4ccccc4)C(C)=C1C3(C)C)[C@]1(OC(C)=O)CO[C@@H]1C[C@@H]2O [Paclitaxel] | 2.27
63 | CN1CCCN=C1/C=C/c1cccc(O)c1 [Oxantel pamoate] | 45.7
64 | CC(N)CCCC(C)(C)O (stereo not drawn) [Heptaminol hydrochloride] | 34.5
65 | C[C@@H](O[C@H]1OCCN(Cc2n[nH]c(=O)[nH]2)[C@H]1c1ccc(F)cc1)c1cc(C(F)(F)F)cc(C(F)(F)F)c1 [Aprepitant] | 51.1
66 | CC=CC1=C(C(=O)O)N2C(=O)[C@@H](NC(=O)[C@H](N)c3ccc(O)cc3)[C@H]2SC1 [Cefprozil] | 38
67 | Cc1cc2c(s1)Nc1ccccc1N=C2N1CCN(C)CC1 [Olanzapine] | 67.8
68 | CC(C)OC(=O)C(C)(C)Oc1ccc(C(=O)c2ccc(Cl)cc2)cc1 [Fenofibrate] | 36.8
69 | Cc1c(O)c(=O)n(-c2ccccc2)n1C [Antipyrine, 4-hydroxy] | 33.4
70 | Nc1ncnc2c1ncn2C1OC(COP(=O)(O)O)C(O)C1O (stereo not drawn) [Adenosine 5'-monophosphate monohydrate] | 41.9
71 | CCOc1ccc2nc(S(N)(=O)=O)sc2c1 [Ethoxzolamide] | 33.2
72 | C[C@@H]1C[C@H]2[C@@H]3CCC4=CC(=O)C=C[C@]4(C)[C@@]3(Cl)[C@@H](O)C[C@]2(C)[C@@]1(OC(=O)c1ccco1)C(=O)CCl [Mometasone furoate] | 44.1
73 | CN1CCCN(C(c2ccccc2)c2ccc(Cl)cc2)CC1 (stereo not drawn) [Homochlorcyclizine dihydrochloride] | 42.4

Looked up above.
In HCT116-GFP viability [%], CSc1nc2cc(Cl)c(Oc3cccc(Cl)c3Cl)cc2[nH]1 [Triclabendazole] has 35.4
In HCT116-GFP viability [%], CC(N)CCCC(C)(C)O (stereo not drawn) [Heptaminol hydrochloride] has 34.5
In HCT116-GFP viability [%], Cc1c(O)c(=O)n(-c2ccccc2)n1C [Antipyrine, 4-hydroxy] has 33.4
In HCT116-GFP viability [%], NC(=O)c1cnccn1 [Pyrazinamide] has 46.8
In HCT116-GFP viability [%], O=C(CCNNC(=O)c1ccncc1)NCc1ccccc1 [Nialamide] has 55.9
